Source: PubChem BioAssay AID190 (DTP/NCI, 2004)
The list shows only some results of the screen, not a fair sample: it is rich in T/C values a quarter to a half above the control, in often repeated tests (any T/C) and in doses without a T/C. Further doses and runs are listed elsewhere. T/C is the treated group as % of the vehicle group. Some doses have a count of surviving animals in place of a T/C: the source files T/C as zero there, which appears to mark a toxic dose or a test without result, not a measured value. Some survivor counts are full or nearly so, which does not show that the dose was tolerated: the source hardly ever lists a survival T/C far under the control, and the zero likely stands for such cases as well. Survivors were counted at the toxicity check, usually on the fifth day, unless a day is given; later deaths do not show. Schedule codes are those of the source, read here as Q, the interval in days (D) or hours (H), X, the number of doses. Additions like (4×) count equal records among those shown. Some entries hold several experiments; their values stand side by side, smallest first. Where survival is the endpoint, this PubChem deposit counts one and a half times the control or more as active, and values a quarter to a half above the control carry no call in these data; other NCI protocols may use other cut-offs. Some T/C values are followed by the survivors on the day toxicity was checked, most often the fifth; without a count, all were alive then.

Test system: AKR/Lw mice, AKR lymphoma ip, median survival T/C
Assay: NCI In Vivo Anticancer Drug Screen. Data for tumor model Lymphoma AKR (Transplanted) (intraperitoneal) in AKR/Lw mice
Settings: T/C endpoint: median survival time, higher T/C = longer survival
Protocol: The antitumor activity of compounds was measured in mice bearing transplantable tumors. Survival or tumor size were measured and the results are expressed as the measurement made in the treated group (T) divided by the measurement made in the vehicle treated control group (C). The tumor model used in this assay is Lymphoma AKR (Transplanted) (intraperitoneal) in AKR/Lw mice

[1] = dose: 0.5 mg/kg/injection, schedule: Q01DX009 (ip), vehicle: saline
[2] = dose: 1.5 mg/kg/injection, schedule: Q04DX003 (ip), vehicle: saline
[3] = dose: 2.0 mg/kg/injection, schedule: Q01DX009 (ip), vehicle: saline
[4] = dose: 3.0 mg/kg/injection, schedule: Q04DX003 (ip), vehicle: saline
[5] = dose: 4.0 mg/kg/injection, schedule: Q01DX009 (ip), vehicle: saline

In the case of `Nc1ncn(C2OC(CO)C(O)C2O)c(=O)n1` (stereo not given), the T/C (dose: 0.03 mg/kg/injection, schedule: Q04DX008 (ip), vehicle: saline) is reported as 130 % of control, the T/C (dose: 0.06 mg/kg/injection, schedule: Q01DX009 (ip), vehicle: saline) is reported as 128 % of control and the T/C (dose: 0.12 mg/kg/injection, schedule: Q01DX009 (ip), vehicle: saline) is reported as 91 [7 of 10 alive], 108, 115, 142 % of control [9 of 10 alive]. The T/C (dose: 0.12 mg/kg/injection, schedule: Q04DX008 (ip), vehicle: saline) was 125 % of control, the survivor count (dose: 0.18 mg/kg/injection, schedule: Q04DX003 (ip), vehicle: saline) was 10 of 10 and the T/C (dose: 0.25 mg/kg/injection, schedule: Q01DX009 (ip), vehicle: saline) was 94, 97, 110, 117 (2×), 119, 125 % of control [9 of 10 alive]. For the same compound, the T/C (dose: 0.25 mg/kg/injection, schedule: Q04DX008 (ip), vehicle: saline) was 138 % of control, the T/C (dose: 0.37 mg/kg/injection, schedule: Q01DX009 (ip), vehicle: water) was 133 % of control and the T/C (dose: 0.37 mg/kg/injection, schedule: Q04DX003 (ip), vehicle: saline) was 128 % of control. The T/C [1] was 94, 96, 103, 108 [8 of 10 alive], 115 [8 of 10 alive], 132 [9 of 10 alive], 139, 157 % of control, the survivor count [1] was 5 of 10 and 10 of 10 and the T/C (dose: 0.5 mg/kg/injection, schedule: Q04DX004 (ip), vehicle: saline) was 128 % of control. For the same compound, the survivor count (dose: 0.75 mg/kg/injection, schedule: Q01DX009 (ip), vehicle: water) was 10 of 10, the T/C (dose: 0.75 mg/kg/injection, schedule: Q04DX003 (ip), vehicle: saline) was 93, 130, 136, 141 % of control and the T/C (dose: 1.0 mg/kg/injection, schedule: Q01DX009 (ip), vehicle: saline, evaluated on day 45) was 129 % of control. For the same compound, the T/C (dose: 1.0 mg/kg/injection, schedule: Q01DX009 (ip), vehicle: saline, evaluated on day 60) was 105, 116 [9 of 10 alive], 117, 130, 131, 138 [9 of 10 alive], 200, 228 % of control [9 of 10 alive], the survivor count (dose: 1.0 mg/kg/injection, schedule: Q01DX009 (ip), vehicle: saline) was 8 of 10 and 9 of 10 and the T/C (dose: 1.0 mg/kg/injection, schedule: Q04DX004 (ip), vehicle: saline) was 137 % of control. For the same compound, the T/C (dose: 1.0 mg/kg/injection, schedule: Q04DX008 (ip), vehicle: saline) was 130 % of control [9 of 10 alive], the survivor count (dose: 1.5 mg/kg/injection, schedule: Q01DX009 (ip), vehicle: saline) was 9 of 10 and the survivor count (dose: 1.5 mg/kg/injection, schedule: Q01DX009 (ip), vehicle: water) was 10 of 10. For the same compound, the T/C [2] was 94, 96, 97, 111, 141 % of control, the survivor count [2] was 6 of 10 and 8 of 10 and the T/C [3] was 91, 100, 110, 123, 130 [9 of 10 alive], 314 % of control. For the same compound, the survivor count [3] was 10 of 10 (2×), the T/C (dose: 2.0 mg/kg/injection, schedule: Q04DX004 (ip), vehicle: saline) was 126 % of control and the T/C (dose: 2.0 mg/kg/injection, schedule: Q04DX008 (ip), vehicle: saline) was 147 % of control. For the same compound, the survivor count (dose: 3.0 mg/kg/injection, schedule: Q01DX009 (ip), vehicle: saline) was 10 of 10, the survivor count (dose: 3.0 mg/kg/injection, schedule: Q01DX009 (ip), vehicle: water) was 10 of 10 and the T/C [4] was 97 [9 of 10 alive], 103, 108 [9 of 10 alive], 121, 125, 135 % of control. The survivor count [4] was 6 of 10 and 10 of 10, the T/C (dose: 3.0 mg/kg/injection, schedule: Q04DX008 (ip), vehicle: saline) was 147 % of control and the T/C [5] was 123 % of control. For the same compound, the survivor count [5] was 7 of 10, 8 of 10, 9 of 10, 10 of 10 and the T/C (dose: 5.0 mg/kg/injection, schedule: Q01DX001 (ip), vehicle: saline) was 93, 97 [8 of 10 alive], 104, 115, 138 % of control.
